Experimental data as given in PubChem BioAssay AID2662 (National Center for Advancing Translational Sciences (NCATS), 2010).
The campaign covered roughly 290,000 compounds. About 110 (0.038%) were called active. The inconclusive results got no clear call from the source; some entries with a clear call stand among them for comparison. The call rests on the fitted dose curve; in most records, active means well fitted inhibition curve with a large enough effect in the polarisation, with a control signal flat (not every such curve was filed as active); inconclusive means small, poorly fitted or top-dose-only effect, or effect the other way, or a change in a side signal; inactive means no such curve, though single readings can be large or run the other way; the % refers to the polarisation. Potencies of inconclusive entries are doubtful fits and often do not repeat. A note “side channel” means that the fit belongs to a control or component signal, not to the main read-out.

By UniProt entry, the sequences of proteins in these tests, tags left out.
UniProt Q03164, whole entry, looked up: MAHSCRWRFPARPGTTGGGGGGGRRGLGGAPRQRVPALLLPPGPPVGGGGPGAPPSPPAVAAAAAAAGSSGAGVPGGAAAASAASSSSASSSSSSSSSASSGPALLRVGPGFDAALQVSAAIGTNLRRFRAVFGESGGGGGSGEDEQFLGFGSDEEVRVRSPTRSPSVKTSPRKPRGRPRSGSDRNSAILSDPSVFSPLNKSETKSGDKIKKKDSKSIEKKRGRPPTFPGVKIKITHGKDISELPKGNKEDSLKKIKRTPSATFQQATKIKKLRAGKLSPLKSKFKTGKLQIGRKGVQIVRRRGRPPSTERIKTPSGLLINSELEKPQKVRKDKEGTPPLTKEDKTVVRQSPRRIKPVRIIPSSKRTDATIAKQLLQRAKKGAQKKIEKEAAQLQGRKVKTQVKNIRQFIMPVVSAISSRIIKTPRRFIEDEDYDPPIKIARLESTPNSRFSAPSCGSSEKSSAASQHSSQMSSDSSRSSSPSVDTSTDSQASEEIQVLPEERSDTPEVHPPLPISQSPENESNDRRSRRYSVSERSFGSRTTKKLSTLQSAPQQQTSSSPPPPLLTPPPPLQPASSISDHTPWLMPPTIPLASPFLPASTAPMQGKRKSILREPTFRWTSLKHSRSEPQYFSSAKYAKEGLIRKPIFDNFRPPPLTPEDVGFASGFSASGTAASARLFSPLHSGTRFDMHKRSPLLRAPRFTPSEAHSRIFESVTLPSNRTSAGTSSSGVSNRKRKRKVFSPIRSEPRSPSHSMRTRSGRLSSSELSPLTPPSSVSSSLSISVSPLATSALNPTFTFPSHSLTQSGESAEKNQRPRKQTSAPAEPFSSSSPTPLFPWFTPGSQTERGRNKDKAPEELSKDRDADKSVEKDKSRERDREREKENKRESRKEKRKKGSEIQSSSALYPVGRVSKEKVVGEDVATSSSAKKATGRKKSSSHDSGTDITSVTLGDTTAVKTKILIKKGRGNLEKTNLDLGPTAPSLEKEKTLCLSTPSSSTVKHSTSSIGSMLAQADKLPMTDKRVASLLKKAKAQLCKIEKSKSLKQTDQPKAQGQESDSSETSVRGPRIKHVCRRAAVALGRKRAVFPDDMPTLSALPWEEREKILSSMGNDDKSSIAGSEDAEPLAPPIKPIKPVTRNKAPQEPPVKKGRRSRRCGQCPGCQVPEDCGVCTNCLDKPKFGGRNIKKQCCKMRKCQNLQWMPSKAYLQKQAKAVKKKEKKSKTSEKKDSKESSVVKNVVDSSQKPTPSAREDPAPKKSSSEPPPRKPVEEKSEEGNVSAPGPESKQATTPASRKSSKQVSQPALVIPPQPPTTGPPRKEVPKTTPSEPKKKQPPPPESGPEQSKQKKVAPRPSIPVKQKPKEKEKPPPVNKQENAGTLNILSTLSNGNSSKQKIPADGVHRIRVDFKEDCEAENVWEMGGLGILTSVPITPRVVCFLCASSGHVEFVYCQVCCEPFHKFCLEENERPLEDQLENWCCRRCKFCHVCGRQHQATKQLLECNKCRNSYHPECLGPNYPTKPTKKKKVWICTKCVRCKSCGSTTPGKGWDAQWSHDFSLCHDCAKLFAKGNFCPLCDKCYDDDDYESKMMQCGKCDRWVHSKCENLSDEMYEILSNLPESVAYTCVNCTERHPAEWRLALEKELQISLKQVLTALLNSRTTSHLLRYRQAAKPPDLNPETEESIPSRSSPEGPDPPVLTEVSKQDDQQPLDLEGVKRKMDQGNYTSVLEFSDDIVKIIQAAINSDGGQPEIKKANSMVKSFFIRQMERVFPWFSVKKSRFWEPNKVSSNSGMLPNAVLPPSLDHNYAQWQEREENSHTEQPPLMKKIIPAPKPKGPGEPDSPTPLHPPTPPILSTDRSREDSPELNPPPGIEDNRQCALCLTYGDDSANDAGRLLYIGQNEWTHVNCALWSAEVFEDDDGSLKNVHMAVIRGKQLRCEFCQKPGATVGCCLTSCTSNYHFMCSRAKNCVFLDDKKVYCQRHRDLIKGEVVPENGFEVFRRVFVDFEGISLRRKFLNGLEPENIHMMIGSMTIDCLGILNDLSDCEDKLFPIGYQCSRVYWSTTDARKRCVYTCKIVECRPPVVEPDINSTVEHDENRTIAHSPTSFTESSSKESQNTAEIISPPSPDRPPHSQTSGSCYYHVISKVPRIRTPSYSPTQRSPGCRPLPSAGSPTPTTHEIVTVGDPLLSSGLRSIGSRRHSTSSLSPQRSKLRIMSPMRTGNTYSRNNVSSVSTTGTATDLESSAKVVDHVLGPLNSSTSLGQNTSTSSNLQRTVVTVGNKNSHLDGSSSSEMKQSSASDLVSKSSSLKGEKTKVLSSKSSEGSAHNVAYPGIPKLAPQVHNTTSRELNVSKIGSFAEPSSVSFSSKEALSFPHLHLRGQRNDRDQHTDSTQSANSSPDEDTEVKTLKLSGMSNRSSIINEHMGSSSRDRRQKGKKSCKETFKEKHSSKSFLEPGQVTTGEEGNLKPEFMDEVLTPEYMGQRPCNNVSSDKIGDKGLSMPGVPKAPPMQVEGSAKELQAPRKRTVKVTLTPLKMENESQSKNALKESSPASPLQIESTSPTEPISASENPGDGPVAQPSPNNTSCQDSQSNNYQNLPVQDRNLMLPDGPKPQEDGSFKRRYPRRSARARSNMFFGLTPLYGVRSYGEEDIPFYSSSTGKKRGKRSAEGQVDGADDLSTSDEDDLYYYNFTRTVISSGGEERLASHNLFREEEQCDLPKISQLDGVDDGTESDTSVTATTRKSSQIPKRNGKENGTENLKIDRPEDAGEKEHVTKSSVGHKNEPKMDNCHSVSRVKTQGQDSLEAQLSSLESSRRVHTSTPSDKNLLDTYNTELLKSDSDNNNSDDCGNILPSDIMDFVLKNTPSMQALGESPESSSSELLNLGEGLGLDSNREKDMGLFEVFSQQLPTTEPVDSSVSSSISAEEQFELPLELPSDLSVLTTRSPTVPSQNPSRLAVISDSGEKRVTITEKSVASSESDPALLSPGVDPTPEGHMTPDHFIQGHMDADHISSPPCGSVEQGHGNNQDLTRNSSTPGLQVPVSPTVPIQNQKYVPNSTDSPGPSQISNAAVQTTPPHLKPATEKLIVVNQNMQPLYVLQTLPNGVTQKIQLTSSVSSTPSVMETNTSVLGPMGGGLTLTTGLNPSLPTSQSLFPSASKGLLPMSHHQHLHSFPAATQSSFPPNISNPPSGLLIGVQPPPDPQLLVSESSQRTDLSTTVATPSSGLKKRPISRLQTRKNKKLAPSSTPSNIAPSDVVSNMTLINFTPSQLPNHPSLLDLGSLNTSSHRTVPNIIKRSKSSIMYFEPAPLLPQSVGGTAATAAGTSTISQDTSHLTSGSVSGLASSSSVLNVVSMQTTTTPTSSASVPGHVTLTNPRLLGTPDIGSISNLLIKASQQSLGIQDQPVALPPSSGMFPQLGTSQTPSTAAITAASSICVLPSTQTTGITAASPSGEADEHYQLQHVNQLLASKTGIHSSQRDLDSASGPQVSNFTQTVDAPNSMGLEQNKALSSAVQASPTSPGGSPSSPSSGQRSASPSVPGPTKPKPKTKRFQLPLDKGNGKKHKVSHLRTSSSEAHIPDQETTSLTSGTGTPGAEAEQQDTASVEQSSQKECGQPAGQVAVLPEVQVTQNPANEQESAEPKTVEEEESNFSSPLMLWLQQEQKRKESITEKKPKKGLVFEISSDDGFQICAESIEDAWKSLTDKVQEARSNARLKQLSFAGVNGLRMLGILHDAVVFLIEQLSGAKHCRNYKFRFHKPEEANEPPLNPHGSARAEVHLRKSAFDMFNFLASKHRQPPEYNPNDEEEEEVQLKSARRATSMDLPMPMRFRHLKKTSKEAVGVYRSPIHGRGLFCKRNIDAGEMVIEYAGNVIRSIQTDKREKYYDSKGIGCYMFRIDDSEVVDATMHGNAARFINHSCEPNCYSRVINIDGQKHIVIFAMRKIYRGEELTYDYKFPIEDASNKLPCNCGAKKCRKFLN

Each molecule was assayed against Histone-lysine N-methyltransferase 2A (Homo sapiens) (UniProt Q03164) (assay: qHTS Fluorescence Polarization Assay for Inhibitors of MLL CXXC domain - DNA interaction). Conditions: MLL-CXXC / FITC-HOXA9 DNA fluorescence polarization; activity change, negative = inhibition: at 115 µM (top of the series).
Description: NIH Chemical Genomics Center [NCGC] NIH Molecular Libraries Probe Production centers Network [MLPCN] MLPCN Grant: DA027717-01A1 Assay Submitter (PI): John Bushweller NCGC Assay Overview: The MLL (Mixed Lineage Luekemia) gene is involved in chromosomal translocation that results in either acute lymphoid leukemia (ALL) or acute myeloid leukemia (AML). Chromasomal translocation of MLL gene is responsible for the fusion of N-terminal MLL to more than 60 different partner genes in frame. Many of the MLL partner genes contain transcription activation domains or function as transcriptional activators. Despite the heterogeneity of fusion partners, the N-terminus of MLL fusion proteins always consists of the N-terminal menin binding motif and the CXXC domain. The MLL-CXXC domain specifically recognizes unmethylated CpG sequences of the HOX-A gene. Disruption of the MLL-CXXC and HOX-A gene interaction leads to down regulation of HOX-A gene expression and may potentially reverse leukemogenesis. We have miniaturized and optimized an in-vitro assay to screen for inhibitors of the MLL-CXXC domain and HOX-A DNA interaction, which could have utility in MLL fusion leukemias.
The affinity purified MLL-CXXC domain, unlabeled HOX-A9 DNA strand, fluorescein (FLSN) labeled HOX-A9 DNA strand were kindly supplied by the laboratory of Dr. John Bushweller, University of Virginia. All reagents were stored in single use aliquots at -80C. Assay Reagents: Assay buffer: 50 mM TRIS-HCl pH 7.5, 50 mM NaCl, 1 mM DTT. Add 0.05% BSA prior to reaction setup. Assay Procedure: 1.Dispense 1 ul of a 7 uM MLL-CXXC solution prepared in assay buffer into column 1-48. 2.Transfer 23 nl of compounds and unlabeled HOX-A9 per well. 3.Incubate for 5 minutes at ambient. 4.Dispense 1ul of a 50 nM FLSN-HOX-A9 solution prepared in assay buffer into columns 1-48 5.Centrifuge for 30 seconds at 1000 RPM. 6.Incubate for 30 minutes at ambient. 7.Read using the Envision reader fluorescent polarization protocol.
Potency means the concentration at half of the fitted maximal effect.

| Structure (SMILES) | Potency | activity change, negative = inhibition |
| --- | --- | --- |
| C=CCn1cc(/C=C/c2cc[n+](C)cc2)c2ccccc21 | inconclusive: 31.6 µM [fluorescent, side channel, partial curve] |  |
| CCn1nc(-c2ccccc2)c2nc3ccccc3nc21 | inconclusive: 35.5 µM [fluorescent, side channel, single point] |  |
| Cc1cc(NCCCN2CCOCC2)n2nc(C)c(-c3ccccc3)c2n1 |  | inactive: -4.39% |
| FC(F)(F)c1ccc(Oc2ccccc2Cl)nc1 | inconclusive: 15.8 µM [inhibitor, partial curve] |  |
| CC(=O)Nc1ccc(NC(=O)Nc2ccccc2)cc1 | inconclusive: 89.1 µM [inhibitor, single point] |  |
| O=C(Nn1c(C2CCCCC2)nc2ccccc2c1=O)c1ccc(Cl)c([N+](=O)[O-])c1 |  | inactive: -5.21% |
| Cc1nc2cc(C(=O)O)ccc2s1 |  | inactive: -7.04% |
| Cc1cccc(Nc2sc(C(=O)c3cc4cc(Cl)ccc4o3)c(N)c2C#N)c1 | inconclusive: 31.6 µM [fluorescent, side channel, partial curve] |  |
| COc1cc(/C=N/NC(=O)C(N)=O)cc(OC)c1O | inconclusive: 70.8 µM [inhibitor, single point] |  |
| COc1ccc(-c2nc(SCC(=O)NC3CCCC3)c(-c3ccc(OC)cc3)[nH]2)cc1 |  | inactive: 12% |
| Cc1ccc(C2C=C(c3ccccc3)Nc3nc(N4C(=O)CCC4=O)nn32)cc1 (centres undefined) | inconclusive: 39.8 µM [fluorescent, side channel, partial curve] |  |
| CC(C)c1ccccc1NC(=O)CNCCOc1ccccc1F | inconclusive: 8.91 µM [fluorescent, side channel, full curve] |  |
| O=C(COC(=O)/C=C/c1ccc(Cl)cc1)NCCC1=CCCCC1 | inconclusive: 1.41 µM [fluorescent, side channel, full curve, poor fit] |  |
| Cc1cc(C)c(C#N)c(N2CCCC2)n1 |  | inactive: -2.82% |
| CCN1CCCC1CNC(=O)c1cc2c(OC)cccc2[nH]1 (centres undefined) | inconclusive: 31.6 µM [fluorescent, single point] |  |
| Cc1ccccc1C1c2[nH]c3ccccc3c2C[C@H]2C(=O)N(C3CCN(Cc4ccccc4)CC3)CC(=O)N12 (some centres undefined) | inconclusive: 14.1 µM [fluorescent, side channel, single point] |  |
| COc1cc(/C=C2\C(=N)N3N=C(C)SC3=NC2=O)cc(OC)c1OCCOc1ccccc1C | inconclusive: 7.08 µM [inhibitor, full curve] |  |
| CC1CCN(S(=O)(=O)c2ccc3c(c2)N(CC(=O)NCCN2C(C)CCCC2C)C(=O)CS3)CC1 (centres undefined) |  | inactive: -6.7% |
| O=C(COc1ccc(/C=C\[N+](=O)[O-])cc1)N1CCOCC1 | inconclusive: 25.1 µM [fluorescent, side channel, single point] |  |
| CCOC(=O)C1=C(O)/C(=C/c2ccc(OCC(=O)O)c(OCC)c2)SC1=Nc1ccc(C)cc1 |  | inactive: -22.4% |
| O=C1CSC2=NCN(c3ccc4c(c3)OCO4)CN12 |  | inactive: 4.64% |
| Cn1c(=O)c2c(ncn2CC(=O)N2CCN(S(=O)(=O)c3ccccc3)CC2)n(C)c1=O |  | inconclusive: -4.48% [phenotype inactive] |

Compounds from the list above containing sulfur, in the order listed:

| Structure (SMILES) | Potency | activity change, negative = inhibition |
| --- | --- | --- |
| Cc1nc2cc(C(=O)O)ccc2s1 |  | inactive: -7.04% |
| Cc1cccc(Nc2sc(C(=O)c3cc4cc(Cl)ccc4o3)c(N)c2C#N)c1 | inconclusive: 31.6 µM [fluorescent, side channel, partial curve] |  |
| COc1ccc(-c2nc(SCC(=O)NC3CCCC3)c(-c3ccc(OC)cc3)[nH]2)cc1 |  | inactive: 12% |
| COc1cc(/C=C2\C(=N)N3N=C(C)SC3=NC2=O)cc(OC)c1OCCOc1ccccc1C | inconclusive: 7.08 µM [inhibitor, full curve] |  |
| CC1CCN(S(=O)(=O)c2ccc3c(c2)N(CC(=O)NCCN2C(C)CCCC2C)C(=O)CS3)CC1 (centres undefined) |  | inactive: -6.7% |
| CCOC(=O)C1=C(O)/C(=C/c2ccc(OCC(=O)O)c(OCC)c2)SC1=Nc1ccc(C)cc1 |  | inactive: -22.4% |
| O=C1CSC2=NCN(c3ccc4c(c3)OCO4)CN12 |  | inactive: 4.64% |
| Cn1c(=O)c2c(ncn2CC(=O)N2CCN(S(=O)(=O)c3ccccc3)CC2)n(C)c1=O |  | inconclusive: -4.48% [phenotype inactive] |

Continued:

| Structure (SMILES) | Potency | activity change, negative = inhibition |
| --- | --- | --- |
| Cc1ccc(S(=O)(=O)NCC(=O)N(CCc2ccccc2)CC(=O)NCc2ccco2)cc1 |  | inactive: 1.36% |
| COc1ccc(CNC(=S)NCc2ccc(Cl)cc2)cc1OC |  | inactive: 2.17% |
| CCOc1ccc(NS(=O)(=O)c2ccc(C(=O)N(C)CCc3ccc(OC)c(OC)c3)cc2)cc1 | inconclusive: 14.1 µM [fluorescent, side channel, single point] |  |
| O=S(=O)(c1ccccc1F)N1CCN(c2nc3ccccc3s2)CC1 | inconclusive: 25.1 µM [inhibitor, partial curve, poor fit] |  |
| O=[N+]([O-])c1ccc(O)c(/C=N/n2c(-c3ccccc3)n[nH]c2=S)c1 |  | inactive: -27.2% |
| N#CC1=C(Nc2ccccc2Cl)SC(c2ccccc2O)NC1=O (centres undefined) | inconclusive: 44.7 µM [quencher, side channel, single point] |  |
| COc1ccc(C(CNC(=O)c2ccc(C)c(S(=O)(=O)Nc3ccccc3OC)c2)N2CCCC2)cc1 (centres undefined) | inconclusive: 25.1 µM [fluorescent, side channel, partial curve] |  |
| CCc1nc2cccnc2n1-c1ccc(CC(=O)O)cc1 | inconclusive: 11.2 µM [fluorescent, side channel, single point] |  |
| Cc1ccc2occ(/C=N/NC(=O)c3ccc(O)cc3)c(=O)c2c1 |  | inactive: 179% |
| Cc1cc(Br)ccc1NC(=O)CN1CCN(c2ccccn2)CC1 | inconclusive: 70.8 µM [fluorescent, side channel, single point] |  |
| Cc1cccc(-c2nc(NCCCN(C)C)c3ccccc3n2)c1 | inconclusive: 70.8 µM [quencher, side channel, single point] |  |
| COc1cccc(C(=O)Nc2ccc(C3CC3(Cl)Cl)cc2)c1 (centres undefined) | inconclusive: 63.1 µM [fluorescent, side channel, single point] |  |
| NC(=O)Cn1ccc(O)c(Cc2ccc(Cl)cc2Cl)c1=O | inconclusive: 70.8 µM [fluorescent, side channel, single point] |  |
| CCN(CC(=O)N1CCCCC1)S(=O)(=O)c1ccccc1 | inconclusive: 50.1 µM [fluorescent, side channel, single point] |  |
| NCCNc1ccc(C(=O)N2c3ccccc3Sc3ccccc32)cc1[N+](=O)[O-] | inconclusive: 25.1 µM [quencher, side channel, partial curve] |  |
| Cc1ccc(N2C(=O)CC(NNc3nc4ccccc4s3)C2=O)cc1C (centres undefined) |  | inactive: -5.1% |
| O=C(O)c1cccc(S(=O)(=O)Nc2ccc([N+](=O)[O-])cc2O)c1 | inconclusive: 31.6 µM [inhibitor, partial curve] |  |
| O=C(NCc1ccccn1)c1ccc(Cl)c(S(=O)(=O)N2CCOCC2)c1 | inconclusive: 14.1 µM [quencher, side channel, single point] |  |
| COc1ccc(Br)cc1C(=O)Nc1ccccc1N1CCN(C(=O)c2ccccc2)CC1 |  | inactive: -9.97% |
| CCN1C(=NCc2ccc(OC)cc2)N[C@@H](CCc2ccccc2)[C@H](C(=O)NCc2ccc(OC)cc2)[C@H]1C | inconclusive: 35.5 µM [quencher, side channel, partial curve] |  |
| Cc1ccc2c(C)c(C(=O)N3CCN(c4cnccn4)CC3)oc2c1C | inconclusive: 14.1 µM [fluorescent, side channel, single point] |  |
| CCOc1ccc(S(=O)(=O)Nc2nc3ccccc3nc2-n2ccc(=NC(=O)c3cccs3)cc2)cc1 | inconclusive: 63.1 µM [fluorescent, side channel, single point] |  |

Sorted by length of the SMILES (rising): part of the list above.

| Structure (SMILES) | Potency | activity change, negative = inhibition |
| --- | --- | --- |
| O=C1CSC2=NCN(c3ccc4c(c3)OCO4)CN12 |  | inactive: 4.64% |
| COc1cc(/C=N/NC(=O)C(N)=O)cc(OC)c1O | inconclusive: 70.8 µM [inhibitor, single point] |  |
| CCN1CCCC1CNC(=O)c1cc2c(OC)cccc2[nH]1 (centres undefined) | inconclusive: 31.6 µM [fluorescent, single point] |  |

Following part

| Structure (SMILES) | Potency | activity change, negative = inhibition |
| --- | --- | --- |
| CCCCNS(=O)(=O)c1ccc(OC)c(Cl)c1Cl |  | inactive: -1.26% |
| Cc1ccc2nc(-c3ccsc3)c(NC3CCCC3)n2c1 |  | inactive: -4.11% |
| CCN(CC)CCn1c(=N)n(CC(O)c2ccc(OC)c(OC)c2)c2ccccc21 (centres undefined) | inconclusive: 8.91 µM [fluorescent, side channel, single point] |  |
| Cc1cc(C)nc(SCC(=O)NC2=NN=C(c3ccc(Br)cc3)CS2)n1 |  | inactive: 14.7% |
| Cc1ccccc1C(=O)Nc1ccc2nc3n(c(=O)c2c1)CCCC3 | inconclusive: 7.94 µM [fluorescent, side channel, partial curve] |  |
| CC(C)(C)NC(=O)CSC(=Nc1ccccc1F)NC#N | inconclusive: 31.6 µM [inhibitor, single point] |  |
| O=C1C(Cl)=C(Nc2ccccc2)C(=O)c2ccccc21 |  | inactive: -4.47% |
| CCCOc1ccc(-c2c(C(=O)N/N=C/c3ccco3)nnn2-c2nonc2N)cc1 |  | inactive: 1.47% |
| O=C(c1cccn2c(=O)c3cc4ccccc4cc3nc12)N1CCN(c2ccccc2)CC1 | inconclusive: 44.7 µM [fluorescent, side channel, partial curve] |  |
| Cc1ccc(N2C(=O)c3cccc4c(N)ccc(c34)C2=O)c2cccnc12 | inconclusive: 3.16 µM [fluorescent, side channel, full curve] |  |
| CCOc1ccccc1N1CCN(C2=C(NS(=O)(=O)c3cccs3)C(=O)c3ccccc3C2=O)CC1 |  | inactive: 5.49% |
| O=C(CNC(=O)c1ccc(Cl)cc1)OCC(=O)c1ccccc1 | inconclusive: 89.1 µM [quencher, side channel, single point] |  |
| CC(NC(=O)Nc1ccc(F)cc1F)c1ccncc1 (centres undefined) | inconclusive: 89.1 µM [inhibitor, single point] |  |
| Cc1ccc(C(=O)N/N=C/c2c(O)ccc3ccccc23)cn1 | inconclusive: 39.8 µM [fluorescent, side channel, partial curve] |  |
| CCCOc1ccc(N2C(=O)CC(N3CCC(c4nncn4CC)CC3)C2=O)cc1 (centres undefined) | inconclusive: 31.6 µM [inhibitor, partial curve] |  |
| Nc1ccc(Oc2ncccn2)cc1 | inconclusive: 39.8 µM [inhibitor, single point] |  |
| COc1cccc(C2CC(c3ccccc3)=NN2S(=O)(=O)c2ccc(C)cc2)c1OC (centres undefined) | inconclusive: 50.1 µM [fluorescent, side channel, single point] |  |
| COc1cc2cc(CN(Cc3cccnc3)C(=O)NCc3ccccc3)c(=O)[nH]c2cc1OC |  | inactive: -10.5% |
| N#Cc1ccc(-c2nc3cc(Cl)ccc3c(=O)n2O)cc1 | inconclusive: 2.82 µM [fluorescent, side channel, partial curve] |  |
| CCn1cnc2c1c(=O)n(CC(=O)OC)c(=O)n2Cc1ccccc1 | inconclusive: 44.7 µM [fluorescent, side channel, single point] |  |
